{"source": "PubChem BioAssay AID504808, Drosophila RNAi Screening Center | 2011", "test": "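Genes whose loss lifts activity of an E2F-responsive reporter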 (primary screen)", "system": "Drosophila S2 cells", "reagent": "long dsRNA against Drosophila genes", "detection": "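Dual luciferase plate measurements; E2F-specific signal taken as firefly over Renilla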", "direction": "E2F firefly: higher = more E2F reporter activity; Renilla normaliser: higher = more normaliser reporter signal", "rule for the call": "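Called active if the normalised E2F reporter went up by over 50%; the cutoff is arbitrary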", "note": "The screen tested about 21,000 reagents; below is a random part of those that have a named target and a result. Over the whole deposit, 18 (0.084%) got an active call. 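Raw counts without plate normalisation, one of two replicates; the ratio scores behind the calls were not deposited.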 A plus sign joins genes that one reagent is predicted to hit. Not stated in the record: the amount of reagent, the time to read-out."}
{"gene":"TMEM216 (Transmembrane protein 216)","DRSC id":"DRSC16378","E2F firefly, rep 1":1.29e5,"Renilla normaliser, rep 1":5716,"Call":"inactive"}
{"gene":"ppk21 (pickpocket 21)","DRSC id":"DRSC14466","E2F firefly, rep 1":1.35e5,"Renilla normaliser, rep 1":6391,"Call":"inactive"}
{"gene":"CG8119","DRSC id":"DRSC20083","E2F firefly, rep 1":2.03e5,"Renilla normaliser, rep 1":9100,"Call":"inactive"}
{"gene":"Vsx1 (Visual system homeobox 1)","DRSC id":"DRSC18349","E2F firefly, rep 1":1.12e5,"Renilla normaliser, rep 1":4358,"Call":"inactive"}
{"gene":"Vsx1 (Visual system homeobox 1)","DRSC id":"DRSC18350","E2F firefly, rep 1":60402,"Renilla normaliser, rep 1":3609,"Call":"inactive"}
{"gene":"Or65b (Odorant receptor 65b)","DRSC id":"DRSC08809","E2F firefly, rep 1":1.21e5,"Renilla normaliser, rep 1":4501,"Call":"inactive"}
{"gene":"CG14932","DRSC id":"DRSC02414","E2F firefly, rep 1":1.47e5,"Renilla normaliser, rep 1":4560,"Call":"inactive"}
{"gene":"CG42374 + Mettl5","DRSC id":"DRSC11085","E2F firefly, rep 1":73984,"Renilla normaliser, rep 1":3084,"Call":"inactive"}
{"gene":"imd (immune deficiency)","DRSC id":"DRSC05928","E2F firefly, rep 1":85307,"Renilla normaliser, rep 1":3175,"Call":"inactive"}
{"gene":"CG31343","DRSC id":"DRSC15887","E2F firefly, rep 1":73905,"Renilla normaliser, rep 1":3275,"Call":"inactive"}
{"gene":"CG7536","DRSC id":"DRSC20050","E2F firefly, rep 1":1.45e5,"Renilla normaliser, rep 1":4971,"Call":"inactive"}
{"gene":"Vm26Aa (Vitelline membrane 26Aa)","DRSC id":"DRSC03472","E2F firefly, rep 1":1.41e5,"Renilla normaliser, rep 1":4301,"Call":"inactive"}

Not a retest: entries from further up.
{"gene":"TMEM216 (Transmembrane protein 216)","DRSC id":"DRSC16378","E2F firefly, rep 1":1.29e5,"Renilla normaliser, rep 1":5716,"Call":"inactive"}
{"gene":"ppk21 (pickpocket 21)","DRSC id":"DRSC14466","E2F firefly, rep 1":1.35e5,"Renilla normaliser, rep 1":6391,"Call":"inactive"}

The results go on.
{"gene":"CG5440","DRSC id":"DRSC00685","E2F firefly, rep 1":1.73e5,"Renilla normaliser, rep 1":5960,"Call":"inactive"}
{"gene":"SIFaR (SIFamide receptor)","DRSC id":"DRSC13467","E2F firefly, rep 1":84923,"Renilla normaliser, rep 1":2371,"Call":"inactive"}
{"gene":"SIFaR (SIFamide receptor)","DRSC id":"DRSC14266","E2F firefly, rep 1":1.50e5,"Renilla normaliser, rep 1":8137,"Call":"inactive"}
{"gene":"lic (licorne)","DRSC id":"DRSC20347","E2F firefly, rep 1":8092,"Renilla normaliser, rep 1":892,"Call":"inactive"}
{"gene":"RpL23A (Ribosomal protein L23A)","DRSC id":"DRSC08694","E2F firefly, rep 1":58068,"Renilla normaliser, rep 1":3936,"Call":"inactive"}
{"gene":"Mhcl (Myosin heavy chain-like)","DRSC id":"DRSC13130","E2F firefly, rep 1":83996,"Renilla normaliser, rep 1":2496,"Call":"inactive"}
{"gene":"Mhcl (Myosin heavy chain-like)","DRSC id":"DRSC14216","E2F firefly, rep 1":1.27e5,"Renilla normaliser, rep 1":6525,"Call":"inactive"}
{"gene":"Mhcl (Myosin heavy chain-like)","DRSC id":"DRSC16753","E2F firefly, rep 1":1.28e5,"Renilla normaliser, rep 1":7116,"Call":"inactive"}
